The other results are listed elsewhere or left out. Many values rest on one well or one pass, so single values are uncertain.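 The apoptosis fraction was the count of cleaved-PARP antibody-stained nuclei relative to all DNA-stained nuclei, imaged in 1,536-well plates. Screening doses were set so most cells survived, and baseline and induced cleaved-PARP levels vary greatly across cell lines.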
Columns and labels:
Experiment in all cases: cleaved PARP positive nuclei fraction relative to DMSO control; melanoma cells; higher = more apoptosis
Conditions in all cases: library dose: low library concentration; 72 h
[1] = system: MZ2-MEL
[2] = system: MeWo
[3] = system: RPMI7951
[4] = system: RVH-421
[5] = system: SkMel28
[6] = system: SkMel2
[7] = system: SkMel30
[8] = system: UACC62
[9] = system: WM115
[10] = system: WM1716
[11] = system: WM1745
[12] = system: WM3526
[13] = system: WM3619
[14] = system: WM451Lu

SMILES | cleaved PARP positive nuclei fraction [1] [%] | cleaved PARP positive nuclei fraction [2] [%] | cleaved PARP positive nuclei fraction [3] [%] | cleaved PARP positive nuclei fraction [4] [%] | cleaved PARP positive nuclei fraction [5] [%] | cleaved PARP positive nuclei fraction [6] [%] | cleaved PARP positive nuclei fraction [7] [%] | cleaved PARP positive nuclei fraction [8] [%] | cleaved PARP positive nuclei fraction [9] [%] | cleaved PARP positive nuclei fraction [10] [%] | cleaved PARP positive nuclei fraction [11] [%] | cleaved PARP positive nuclei fraction [12] [%] | cleaved PARP positive nuclei fraction [13] [%] | cleaved PARP positive nuclei fraction [14] [%]
C[C@@H](Oc1cc(-c2cnn(C3CCNCC3)c2)cnc1N)c1c(Cl)ccc(F)c1Cl [Crizotinib] + C#Cc1cccc(Nc2ncnc3cc(OCCOC)c(OCCOC)cc23)c1 [erlotinib] (first compound 0.2 µM, partner dose 0.8 µM) | 71.4 | 118 | 125 | 97.2 | 53.8 | 130 | 134 | 125 | 62.2 | 170 | 119 | 47 | 90.2 | 142
CN1CCN(c2ccc3nc(-c4c(N)c5c(F)cccc5[nH]c4=O)[nH]c3c2)CC1 [Dovitinib] + Nc1nc(F)nc2c1ncn2[C@@H]1O[C@H](CO)[C@@H](O)[C@@H]1O [fludarabine] (first compound 0.1 µM, partner dose 0.2 µM) | 71 | 308 | 120 | 124 | 162 | 290 | 820 | 119 | 134 | 111 | 98.7 | 125 | 104 | 387
O=C(O)c1ccc2c(c1)nc(Nc1cccc(Cl)c1)c1ccncc12 + C[C@]1(c2nc3c(C(N)=O)cccc3[nH]2)CCCN1 [Veliparib] (first compound 0.4 µM, partner dose 1.4 µM) | 182 | 36.3 | 149 | 134 | 41 | 137 | 199 | 124 | 107 | 160 | 97.2 | 52.2 | 108 | 43.6
CN1CCN(c2ccc3nc(-c4c(N)c5c(F)cccc5[nH]c4=O)[nH]c3c2)CC1 [Dovitinib] + C=CCNC1=C2C[C@@H](C)C[C@H](OC)[C@H](O)[C@@H](C)/C=C(\C)[C@H](OC(N)=O)[C@@H](OC)/C=C\C=C(/C)C(=O)NC(=CC1=O)C2=O [Tanespimycin] (first compound 0.1 µM, partner dose 0.002 µM) | 86.4 | 118 | 72.1 | 74.9 | 46.8 | 54.7 | 317 | 133 | 61.4 | 156 | 93.5 | 147 | 100 | 28.5
C[C@@H](Oc1cc(-c2cnn(C3CCNCC3)c2)cnc1N)c1c(Cl)ccc(F)c1Cl [Crizotinib] + Cc1nc(Nc2ncc(C(=O)Nc3c(C)cccc3Cl)s2)cc(N2CCN(CCO)CC2)n1 [dasatanib] (first compound 0.2 µM, partner dose 0.004 µM) | 65.8 | 61.5 | 260 | 152 | 134 | 116 | 140 | 229 | 181 | 73.7 | 123 | 89.9 | 105 | 55.3
CC(C)C[C@H](NC(=O)[C@H](Cc1ccccc1)NC(=O)c1cnccn1)B(O)O [Bortezomib] + C=C(c1ccc(C(=O)O)cc1)c1cc2c(cc1C)C(C)(C)CCC2(C)C [Bexarotene] (first compound 0.001 µM, partner dose 2 µM) | 280 | 124 | 428 | 209 | 55.5 | 65.9 | 68.8 | 241 | 89.1 | 727 | 168 | 78.5 | 780 | 70.5
Nc1ncn([C@H]2C[C@H](O)[C@@H](CO)O2)c(=O)n1 [decitabine] + Cn1c(Nc2ccc(C(F)(F)F)cc2)nc2cc(Oc3ccnc(-c4ncc(C(F)(F)F)[nH]4)c3)ccc21 [CHIR265] (first compound 0.1 µM, partner dose 0.08 µM) | 55.8 | 233 | 157 | 320 | 150 | 106 | 155 | 373 | 919 | 120 | 125 | 258 | 111 | 51.1
CC(C)C[C@H](NC(=O)[C@H](Cc1ccccc1)NC(=O)c1cnccn1)B(O)O [Bortezomib] + O=C(O)[C@@H]1[O][Sb](=[O])([O][Sb]2(=[O])[O][C@H]([C@H](O)CO)[C@H](O)[C@H](C(=O)O)[O]2)[O][C@H]([C@H](O)CO)[C@@H]1O [stibogluconate] (first compound 0.001 µM, partner dose 2 µM) | 58.5 | 519 | 56.7 | 139 | 77.8 | 78.2 | 28.8 | 103 | 23.5 | 3530 | 108 | 46.3 | 230 | 41.7
C=C(c1ccc(C(=O)O)cc1)c1cc2c(cc1C)C(C)(C)CCC2(C)C [Bexarotene] + C#Cc1cccc(Nc2ncnc3cc(OCCOC)c(OCCOC)cc23)c1 [erlotinib] (first compound 2 µM, partner dose 0.8 µM) | 127 | 111 | 128 | 80.7 | 136 | 134 | 172 | 125 | 69.7 | 79.1 | 112 | 307 | 108 | 56
Cc1cc(Nc2cc(N3CCN(C)CC3)nc(/C=C/c3ccccc3)n2)n[nH]1 + CS(=O)(=O)CCNCc1ccc(-c2ccc3ncnc(Nc4ccc(OCc5cccc(F)c5)c(Cl)c4)c3c2)o1 [lapatinib] (first compound 0.04 µM, partner dose 0.8 µM) | 187 | 18.2 | 136 | 220 | 97.7 | 50 | 31 | 57 | 34.6 | 69.4 | 105 | 208 | 97.4 | 282
CNC(=O)c1cc(Oc2ccc(NC(=O)Nc3ccc(Cl)c(C(F)(F)F)c3)cc2)ccn1 [sorafenib] + Nc1ncn([C@H]2C[C@H](O)[C@@H](CO)O2)c(=O)n1 [decitabine] (first compound 0.4 µM, partner dose 0.1 µM) | 166 | 113 | 184 | 37.9 | 198 | 216 | 123 | 233 | 114 | 60.3 | 106 | 114 | 109 | 56
CN1CCN(c2ccc3nc(-c4c(N)c5c(F)cccc5[nH]c4=O)[nH]c3c2)CC1 [Dovitinib] + C[C@]1(c2nc3c(C(N)=O)cccc3[nH]2)CCCN1 [Veliparib] (first compound 0.1 µM, partner dose 1.4 µM) | 38.1 | 76 | 43.3 | 222 | 72.8 | 79.2 | 84.1 | 18.8 | 158 | 20 | 25.7 | 49.2 | 83.4 | 208
CCCS(=O)(=O)Nc1ccc(F)c(C(=O)c2c[nH]c3ncc(Cl)cc23)c1F + CC(=O)c1c(C)c2cnc(Nc3ccc(N4CCNCC4)cn3)nc2n(C2CCCC2)c1=O [palbociclib] (first compound 0.08 µM, partner dose 0.04 µM) | 78.2 | 77.1 | 59.3 | 225 | 252 | 23.4 | 59.2 | 317 | 101 | 81.7 | 102 | 74.1 | 156 | 58.5
C[C@@H](Oc1cc(-c2cnn(C3CCNCC3)c2)cnc1N)c1c(Cl)ccc(F)c1Cl [Crizotinib] + COc1ccc(Cl)c(Nc2nc3ccccc3nc2NS(=O)(=O)c2cccc(NC(=O)C(C)(C)N)c2)c1 [XL147] (first compound 0.2 µM, partner dose 0.8 µM) | 70.2 | 53.7 | 137 | 98.7 | 44 | 80.4 | 84 | 144 | 119 | 20.4 | 94.4 | 66.6 | 81.3 | 30.9
C[C@@H](Oc1cc(-c2cnn(C3CCNCC3)c2)cnc1N)c1c(Cl)ccc(F)c1Cl [Crizotinib] + Nc1ncn([C@H]2C[C@H](O)[C@@H](CO)O2)c(=O)n1 [decitabine] (first compound 0.2 µM, partner dose 0.1 µM) | 127 | 136 | 63.7 | 77.1 | 78.8 | 72.6 | 38.8 | 34.7 | 44.2 | 36.6 | 90.4 | 43.8 | 81.9 | 294
Nc1nc(F)nc2c1ncn2[C@@H]1O[C@H](CO)[C@@H](O)[C@@H]1O [fludarabine] + CC(=O)c1c(C)c2cnc(Nc3ccc(N4CCNCC4)cn3)nc2n(C2CCCC2)c1=O [palbociclib] (first compound 0.2 µM, partner dose 0.04 µM) | 126 | 495 | 170 | 55.2 | 116 | 889 | 692 | 52.4 | 244 | 66.8 | 126 | 813 | 144 | 255
O=C(O)c1ccc2c(c1)nc(Nc1cccc(Cl)c1)c1ccncc12 + Nc1nc(F)nc2c1ncn2[C@@H]1O[C@H](CO)[C@@H](O)[C@@H]1O [fludarabine] (first compound 0.4 µM, partner dose 0.2 µM) | 152 | 641 | 129 | 104 | 119 | 260 | 2050 | 81.9 | 164 | 250 | 88.8 | 303 | 78.3 | 118
CC(C)C[C@H](NC(=O)[C@H](Cc1ccccc1)NC(=O)c1cnccn1)B(O)O [Bortezomib] + CS(=O)(=O)CCNCc1ccc(-c2ccc3ncnc(Nc4ccc(OCc5cccc(F)c5)c(Cl)c4)c3c2)o1 [lapatinib] (first compound 0.001 µM, partner dose 0.8 µM) | 212 | 45.7 | 207 | 175 | 136 | 89.1 | 105 | 136 | 125 | 169 | 157 | 59.9 | 536 | 45.7

Reprinted from the entries so far for reference:
SMILES | cleaved PARP positive nuclei fraction [1] [%] | cleaved PARP positive nuclei fraction [2] [%] | cleaved PARP positive nuclei fraction [3] [%] | cleaved PARP positive nuclei fraction [4] [%] | cleaved PARP positive nuclei fraction [5] [%] | cleaved PARP positive nuclei fraction [6] [%] | cleaved PARP positive nuclei fraction [7] [%] | cleaved PARP positive nuclei fraction [8] [%] | cleaved PARP positive nuclei fraction [9] [%] | cleaved PARP positive nuclei fraction [10] [%] | cleaved PARP positive nuclei fraction [11] [%] | cleaved PARP positive nuclei fraction [12] [%] | cleaved PARP positive nuclei fraction [13] [%] | cleaved PARP positive nuclei fraction [14] [%]
CCCS(=O)(=O)Nc1ccc(F)c(C(=O)c2c[nH]c3ncc(Cl)cc23)c1F + CC(=O)c1c(C)c2cnc(Nc3ccc(N4CCNCC4)cn3)nc2n(C2CCCC2)c1=O [palbociclib] (first compound 0.08 µM, partner dose 0.04 µM) | 78.2 | 77.1 | 59.3 | 225 | 252 | 23.4 | 59.2 | 317 | 101 | 81.7 | 102 | 74.1 | 156 | 58.5
C[C@@H](Oc1cc(-c2cnn(C3CCNCC3)c2)cnc1N)c1c(Cl)ccc(F)c1Cl [Crizotinib] + COc1ccc(Cl)c(Nc2nc3ccccc3nc2NS(=O)(=O)c2cccc(NC(=O)C(C)(C)N)c2)c1 [XL147] (first compound 0.2 µM, partner dose 0.8 µM) | 70.2 | 53.7 | 137 | 98.7 | 44 | 80.4 | 84 | 144 | 119 | 20.4 | 94.4 | 66.6 | 81.3 | 30.9
C[C@@H](Oc1cc(-c2cnn(C3CCNCC3)c2)cnc1N)c1c(Cl)ccc(F)c1Cl [Crizotinib] + Nc1ncn([C@H]2C[C@H](O)[C@@H](CO)O2)c(=O)n1 [decitabine] (first compound 0.2 µM, partner dose 0.1 µM) | 127 | 136 | 63.7 | 77.1 | 78.8 | 72.6 | 38.8 | 34.7 | 44.2 | 36.6 | 90.4 | 43.8 | 81.9 | 294
Nc1nc(F)nc2c1ncn2[C@@H]1O[C@H](CO)[C@@H](O)[C@@H]1O [fludarabine] + CC(=O)c1c(C)c2cnc(Nc3ccc(N4CCNCC4)cn3)nc2n(C2CCCC2)c1=O [palbociclib] (first compound 0.2 µM, partner dose 0.04 µM) | 126 | 495 | 170 | 55.2 | 116 | 889 | 692 | 52.4 | 244 | 66.8 | 126 | 813 | 144 | 255
O=C(O)c1ccc2c(c1)nc(Nc1cccc(Cl)c1)c1ccncc12 + Nc1nc(F)nc2c1ncn2[C@@H]1O[C@H](CO)[C@@H](O)[C@@H]1O [fludarabine] (first compound 0.4 µM, partner dose 0.2 µM) | 152 | 641 | 129 | 104 | 119 | 260 | 2050 | 81.9 | 164 | 250 | 88.8 | 303 | 78.3 | 118

Reference: the supplement of paper PMC4604168 (melanoma cell lines)
